In publication PMC6817462 one finds binding data, which are given here for 1 molecule.

Protein sequences, listed by entry. Tags and fused reporters are not part of them.
UniProt P40763: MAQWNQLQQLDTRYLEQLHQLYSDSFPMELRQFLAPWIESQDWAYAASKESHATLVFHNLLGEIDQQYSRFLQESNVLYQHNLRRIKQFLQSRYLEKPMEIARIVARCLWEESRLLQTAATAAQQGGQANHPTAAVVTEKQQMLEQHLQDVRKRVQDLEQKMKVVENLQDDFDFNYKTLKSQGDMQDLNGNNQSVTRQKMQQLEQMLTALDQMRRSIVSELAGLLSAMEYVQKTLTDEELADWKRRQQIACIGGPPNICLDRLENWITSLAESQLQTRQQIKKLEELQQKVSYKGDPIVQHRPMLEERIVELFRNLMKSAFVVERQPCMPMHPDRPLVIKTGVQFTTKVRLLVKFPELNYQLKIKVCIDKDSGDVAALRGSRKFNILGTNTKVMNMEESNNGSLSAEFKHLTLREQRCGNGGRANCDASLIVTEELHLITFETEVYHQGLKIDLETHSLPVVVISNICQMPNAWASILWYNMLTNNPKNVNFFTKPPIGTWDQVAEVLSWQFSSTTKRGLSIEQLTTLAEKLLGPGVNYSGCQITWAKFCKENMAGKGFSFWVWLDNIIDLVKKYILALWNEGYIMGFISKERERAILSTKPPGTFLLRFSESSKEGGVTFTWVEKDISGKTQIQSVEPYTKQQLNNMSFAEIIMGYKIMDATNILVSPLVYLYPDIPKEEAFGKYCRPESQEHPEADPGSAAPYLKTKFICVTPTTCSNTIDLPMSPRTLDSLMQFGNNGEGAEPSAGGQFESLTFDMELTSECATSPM

The target of the experiment is STAT3 (UniProt P40763). The experiment is described as follows: co-IP; cells, bait and conditions not told; shown in Supplementary Figure 5.

Results are given in words; binding and its absence hold for the method and conditions named. In cells and extracts the contact can be indirect.

B1: Hepatocyte nuclear factor 3β (protein, UniProt Q9Y261 1-457)
chain: MLGAVKMEGHEPSDWSSYYAEPEGYSSVSNMNAGLGMNGMNTYMSMSAAAMGSGSGNMSAGSMNMSSYVGAGMSPSLAGMSPGAGAMAGMGGSAGAAGVAGMGPHLSPSLSPLGGQAAGAMGGLAPYANMNSMSPMYGQAGLSRARDPKTYRRSYTHAKPPYSYISLITMAIQQSPNKMLTLSEIYQWIMDLFPFYRQNQQRWQNSIRHSLSFNDCFLKVPRSPDKPGKGSFWTLHPDSGNMFENGCYLRRQKRFKCEKQLALKEAAGAAGSGKKAAAGAQASQAQLGEAAGPASETPAGTESPHSSASPCQEHKRGGLGELKGTPAAALSPPEPAPSPGQQQQAAAHLLGPPHHPGLPPEAHLKPEHHYAFNHPFSINNLMSSEQQHHHSHHHHQPHKMDLKAYEQVMHYPGYGSPMPGSLAMGPVTNKTGLDASPLAADTSYYQGVYSRPIMNSS
Consider B1, for which the binding result was “no binding”.
